No constants are given. Whether binding was seen depends on the method and setting. Some results given as binding are weak or reduced against the parent protein; the word gives no strength. For part of these data: Tags and fused reporters may be left off the sequences shown.

Sequences of proteins named here, by UniProt entry; tags and fusion partners are left off. A change or cut given only in a name is not applied to a line headed by its entry.
UniProt Q9UI95, whole entry: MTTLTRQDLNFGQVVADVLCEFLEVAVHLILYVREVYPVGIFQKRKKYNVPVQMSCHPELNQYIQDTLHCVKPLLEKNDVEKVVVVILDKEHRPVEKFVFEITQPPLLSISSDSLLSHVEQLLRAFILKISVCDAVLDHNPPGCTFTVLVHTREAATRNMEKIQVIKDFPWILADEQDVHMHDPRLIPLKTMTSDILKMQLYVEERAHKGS

Assay [1] has as its target T1, SHLD3 (full length) (human) (UniProt Q6ZNX1).
T1 sequence: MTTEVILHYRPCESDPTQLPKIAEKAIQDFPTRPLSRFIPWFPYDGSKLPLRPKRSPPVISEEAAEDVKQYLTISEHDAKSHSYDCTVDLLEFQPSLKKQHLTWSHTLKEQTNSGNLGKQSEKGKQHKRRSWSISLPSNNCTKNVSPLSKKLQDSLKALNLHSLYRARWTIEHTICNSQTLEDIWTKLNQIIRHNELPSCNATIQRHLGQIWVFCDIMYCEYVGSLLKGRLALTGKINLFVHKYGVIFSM
The assay is described as follows: co-purification.

Assay [2] concerns the target T2, MBP-SHLD3^45-60 (human) (UniProt Q6ZNX1).
T2 sequence: DGSKLPLRPKRSPPVI
The assay is described as follows: pull-down.

As to “REV7^R124A of the SHLD3-SHLD2^1-95-REV7^R124A complex (from UniProt Q9UI95 1-211)”, in assay [1], the binding result is “binds”.

As to REV7^WT (from UniProt Q9UI95 1-211), the binding result in assay [2] was “binds”.

In the case of “REV7 of the SHLD3-SHLD2^1-95-REV7 ternary complex (Shieldin) (from UniProt Q9UI95 1-211)”, in assay [1], the binding result is recorded as “binds”.
